Results: the M2OR odorant receptor database
The list shows a part of the results. Calls are pooled over several reports, among them a noisy single-well screen.

Tests used:
Conditions in all cases: stereoisomer not certain
[1] = system: T1, O11L1
T1 sequence (whole entry): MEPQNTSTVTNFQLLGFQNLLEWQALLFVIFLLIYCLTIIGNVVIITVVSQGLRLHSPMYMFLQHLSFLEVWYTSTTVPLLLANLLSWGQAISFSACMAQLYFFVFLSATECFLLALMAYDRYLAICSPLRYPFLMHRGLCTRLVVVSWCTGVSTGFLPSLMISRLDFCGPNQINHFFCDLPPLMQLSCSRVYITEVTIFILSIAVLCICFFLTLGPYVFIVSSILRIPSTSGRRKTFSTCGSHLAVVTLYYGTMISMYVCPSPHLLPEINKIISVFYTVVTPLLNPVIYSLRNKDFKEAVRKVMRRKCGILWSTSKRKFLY
Method in brief: (§1)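 Transient luciferase assays in mammalian cell lines were common, though methods varied by source. The values come from published papers and their supplementary material, with extra details from the original authors when needed. Responsive refers to a measured signal the original authors judged statistically different from baseline, and non-responsive (inactive) to the remainder.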

[2] = system: T2, O12D2
T2 sequence (whole entry): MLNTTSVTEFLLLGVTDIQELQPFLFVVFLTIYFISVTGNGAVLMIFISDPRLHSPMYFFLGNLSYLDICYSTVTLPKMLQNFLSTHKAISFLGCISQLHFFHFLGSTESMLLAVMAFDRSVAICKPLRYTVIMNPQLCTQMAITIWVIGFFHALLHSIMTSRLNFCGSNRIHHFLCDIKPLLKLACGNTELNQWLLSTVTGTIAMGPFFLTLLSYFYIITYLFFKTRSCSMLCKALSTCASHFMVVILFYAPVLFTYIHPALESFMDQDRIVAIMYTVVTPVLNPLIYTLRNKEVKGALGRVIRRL
Method in brief: as §1

[3] = system: T3, O13C3
T3 sequence (whole entry): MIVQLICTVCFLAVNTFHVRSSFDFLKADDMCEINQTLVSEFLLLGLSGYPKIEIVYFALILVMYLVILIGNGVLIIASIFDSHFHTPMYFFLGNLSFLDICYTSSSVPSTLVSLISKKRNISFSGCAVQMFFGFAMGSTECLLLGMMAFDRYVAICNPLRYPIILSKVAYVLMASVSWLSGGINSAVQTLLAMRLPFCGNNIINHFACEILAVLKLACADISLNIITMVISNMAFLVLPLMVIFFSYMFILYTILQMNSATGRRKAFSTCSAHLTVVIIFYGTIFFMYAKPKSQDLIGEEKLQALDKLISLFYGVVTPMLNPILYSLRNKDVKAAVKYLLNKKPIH
Method in brief: as §1

[4] = system: T4, O13C5
T4 sequence (whole entry): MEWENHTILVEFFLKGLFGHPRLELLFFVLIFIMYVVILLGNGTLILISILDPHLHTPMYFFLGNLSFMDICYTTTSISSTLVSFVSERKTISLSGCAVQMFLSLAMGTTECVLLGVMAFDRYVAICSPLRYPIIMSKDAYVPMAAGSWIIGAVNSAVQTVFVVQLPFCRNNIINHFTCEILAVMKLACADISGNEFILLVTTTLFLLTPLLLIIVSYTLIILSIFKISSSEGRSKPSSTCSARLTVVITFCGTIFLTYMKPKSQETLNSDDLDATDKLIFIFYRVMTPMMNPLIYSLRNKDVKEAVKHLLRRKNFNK
Method in brief: as §1

[5] = system: T5, O13C7
T5 sequence (whole entry): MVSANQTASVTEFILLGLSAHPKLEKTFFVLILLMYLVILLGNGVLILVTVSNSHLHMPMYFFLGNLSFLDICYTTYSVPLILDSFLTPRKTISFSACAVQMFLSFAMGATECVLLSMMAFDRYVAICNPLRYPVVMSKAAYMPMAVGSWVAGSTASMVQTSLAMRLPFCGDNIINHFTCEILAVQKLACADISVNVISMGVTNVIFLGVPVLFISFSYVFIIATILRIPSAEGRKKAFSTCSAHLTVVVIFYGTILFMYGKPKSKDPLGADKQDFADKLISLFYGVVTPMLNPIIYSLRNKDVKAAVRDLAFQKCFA
Method in brief: as §1

[6] = system: T6, O13C9
T6 sequence (whole entry): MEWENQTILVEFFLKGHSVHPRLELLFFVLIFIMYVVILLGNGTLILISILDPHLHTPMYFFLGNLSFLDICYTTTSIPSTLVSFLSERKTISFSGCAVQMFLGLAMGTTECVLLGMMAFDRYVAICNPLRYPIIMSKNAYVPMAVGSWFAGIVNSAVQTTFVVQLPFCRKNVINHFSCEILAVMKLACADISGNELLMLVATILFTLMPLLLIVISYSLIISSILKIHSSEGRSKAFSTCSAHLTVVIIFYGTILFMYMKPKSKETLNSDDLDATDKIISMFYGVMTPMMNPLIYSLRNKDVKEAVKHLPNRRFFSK
Method in brief: as §1

[7] = system: T7, O13D1
T7 sequence (whole entry): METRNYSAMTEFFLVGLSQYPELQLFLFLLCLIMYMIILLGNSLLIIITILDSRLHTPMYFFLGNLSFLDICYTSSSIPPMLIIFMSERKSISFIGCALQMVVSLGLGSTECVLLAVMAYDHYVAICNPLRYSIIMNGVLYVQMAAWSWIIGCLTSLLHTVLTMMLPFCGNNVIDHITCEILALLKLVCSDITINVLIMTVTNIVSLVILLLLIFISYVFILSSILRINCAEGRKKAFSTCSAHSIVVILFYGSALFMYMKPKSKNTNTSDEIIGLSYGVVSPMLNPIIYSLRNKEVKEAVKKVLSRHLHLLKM
Method in brief: as §1

[8] = system: T8, O13D1; remark: listed apart in the source
T8 sequence (whole entry): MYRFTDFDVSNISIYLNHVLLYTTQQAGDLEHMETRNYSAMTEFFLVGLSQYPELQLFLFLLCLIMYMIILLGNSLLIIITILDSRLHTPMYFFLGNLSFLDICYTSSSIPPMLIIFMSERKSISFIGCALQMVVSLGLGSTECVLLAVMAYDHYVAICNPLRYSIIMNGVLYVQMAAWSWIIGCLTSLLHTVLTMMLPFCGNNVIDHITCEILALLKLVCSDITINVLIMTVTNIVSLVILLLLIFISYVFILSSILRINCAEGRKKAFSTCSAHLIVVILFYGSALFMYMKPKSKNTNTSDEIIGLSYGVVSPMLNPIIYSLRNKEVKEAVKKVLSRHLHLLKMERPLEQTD
Method in brief: as §1

[9] = system: T9, O13F1
T9 sequence (whole entry): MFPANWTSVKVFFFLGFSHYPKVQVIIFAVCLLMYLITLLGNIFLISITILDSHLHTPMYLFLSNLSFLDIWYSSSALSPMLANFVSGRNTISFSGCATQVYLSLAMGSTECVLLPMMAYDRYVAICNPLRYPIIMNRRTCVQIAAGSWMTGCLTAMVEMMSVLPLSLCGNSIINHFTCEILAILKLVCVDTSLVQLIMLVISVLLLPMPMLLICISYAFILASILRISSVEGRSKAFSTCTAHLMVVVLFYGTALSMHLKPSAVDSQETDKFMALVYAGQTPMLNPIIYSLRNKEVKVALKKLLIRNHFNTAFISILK
Method in brief: as §1

[10] = system: T10, O13G1
T10 sequence (whole entry): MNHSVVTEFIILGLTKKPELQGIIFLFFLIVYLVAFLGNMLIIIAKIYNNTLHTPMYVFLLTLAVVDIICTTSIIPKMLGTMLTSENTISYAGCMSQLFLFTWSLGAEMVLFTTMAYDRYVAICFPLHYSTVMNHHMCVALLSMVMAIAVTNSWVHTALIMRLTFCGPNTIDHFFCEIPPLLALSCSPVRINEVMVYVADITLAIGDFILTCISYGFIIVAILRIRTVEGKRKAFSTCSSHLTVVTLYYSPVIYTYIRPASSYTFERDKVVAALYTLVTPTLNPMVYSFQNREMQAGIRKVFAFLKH
Method in brief: as §1

Measured: odorant receptor agonist call;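 note: active if original authors judged signal statistically different from baseline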

CCC(C)=O
inactive: all assays above
